Results deposited as PubChem BioAssay AID1259290 (Sanger Institute, 2017)
Assay: 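Kinases whose loss kills colorectal cancer cells alone or alongside targeted drugs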 (primary screen). Cells: human SNUC1 colorectal cancer cells. Reagents: siRNA pool against human genes. Treatment: anchor drugs BYL719 1 µM, cetuximab 5 µg/ml or trametinib 10 nM, or DMSO vehicle alone. Measured: 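Cell viability relative to a non-targeting siRNA control, replicate-averaged, as robust z-score for knock-down alone, plus a synergy score for each anchor drug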. Reading the numbers: viability z-score, siRNA alone: higher = more viable cells; low values mean essential gene; viability vs control, siRNA alone: higher = more viable cells. Hit rule: 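a knock-down without drug scoring a robust z under -3 counts as essential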. Calls: active = essential: knock-down alone cut viability (z below -3); inactive = no clear viability loss with knock-down alone.
In all, the deposit lists 794 reagents; this is a random part of them. Of all reagents, 9 (1.1%) were called active. 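Calls rest on knock-down alone, not drug synergy; synergy above 0.15 was grouped apart and does not affect calls.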 Unmarked entries are inactive. Viability is capped at 1. Not all columns of the deposit are shown. The record does not give: the amount of reagent, the time to read-out.

{"target": "PNKP", "viability z-score, siRNA alone": 0.936, "viability vs control, siRNA alone": 1}
{"target": "ROCK1", "viability z-score, siRNA alone": 0.285, "viability vs control, siRNA alone": 0.941}
{"target": "BRD3", "viability z-score, siRNA alone": 0.936, "viability vs control, siRNA alone": 1}
{"target": "GK2", "viability z-score, siRNA alone": -1.36, "viability vs control, siRNA alone": 0.794}
{"target": "FCSK", "viability z-score, siRNA alone": 0.936, "viability vs control, siRNA alone": 1}
{"target": "MYO3B", "viability z-score, siRNA alone": -0.261, "viability vs control, siRNA alone": 0.892}
{"target": "CDK14", "viability z-score, siRNA alone": 0.879, "viability vs control, siRNA alone": 0.995}
{"target": "MAPK15", "viability z-score, siRNA alone": 0.936, "viability vs control, siRNA alone": 1}
{"target": "UCK1", "viability z-score, siRNA alone": -1.39, "viability vs control, siRNA alone": 0.79}
{"target": "STK3", "viability z-score, siRNA alone": 0.0569, "viability vs control, siRNA alone": 0.921}
{"target": "CSNK2A1", "viability z-score, siRNA alone": 0.936, "viability vs control, siRNA alone": 1}
{"target": "PFKFB3", "viability z-score, siRNA alone": 0.0891, "viability vs control, siRNA alone": 0.924}
{"target": "ACVR1B", "viability z-score, siRNA alone": 0.0939, "viability vs control, siRNA alone": 0.924}
{"target": "MAST2", "viability z-score, siRNA alone": -0.484, "viability vs control, siRNA alone": 0.872}
{"target": "PRKCA", "viability z-score, siRNA alone": 0.567, "viability vs control, siRNA alone": 0.967}
{"target": "RIOK2", "viability z-score, siRNA alone": -0.247, "viability vs control, siRNA alone": 0.893}
{"target": "NUCKS1", "viability z-score, siRNA alone": 0.936, "viability vs control, siRNA alone": 1}
{"target": "CKMT2", "viability z-score, siRNA alone": 0.936, "viability vs control, siRNA alone": 1}
{"target": "TSSK6", "viability z-score, siRNA alone": 0.3, "viability vs control, siRNA alone": 0.943}

A portion taken from the entries so far:
{"target": "UCK1", "viability z-score, siRNA alone": -1.39, "viability vs control, siRNA alone": 0.79}
{"target": "STK3", "viability z-score, siRNA alone": 0.0569, "viability vs control, siRNA alone": 0.921}
